The test system of this assay is P388 leukemia ip, CD2F1 mice, survival T/C. Nature of the assay: NCI In Vivo Anticancer Drug Screen. Data for tumor model P388 Leukemia (intraperitoneal) in CD2F1 (CDF1) mice. The note with it: T/C endpoint: median survival time, higher T/C = longer survival.
Where [1] appears, read: dose: 200.0 mg/kg/injection, schedule: Q01DX005 (ip), vehicle: saline with Tween-80.
Where [2] appears, read: dose: 200.0 mg/kg/injection, schedule: Q04DX003 (ip), vehicle: saline with Tween-80.
The mark [3] stands for this setting: dose: 100.0 mg/kg/injection, schedule: Q01DX005 (ip), vehicle: Klucel (hydroxypropylcellulose) (HPC).
Where [4] appears, read: dose: 200.0 mg/kg/injection, schedule: Q01DX005 (ip), vehicle: Klucel (hydroxypropylcellulose) (HPC).
Where [5] appears, read: dose: 400.0 mg/kg/injection, schedule: Q04DX003 (ip), vehicle: saline with Tween-80.

The list shows only some results of the screen, not a fair sample: it gathers tests that were run many times, whatever their T/C, doses with no T/C, and many T/C values between a quarter and a half above the control. Other doses and runs of a compound stand elsewhere. T/C gives the treated animals as a percentage of the vehicle group. Some entries give survivors of the animals treated and no T/C: the source files T/C as zero there, which appears to mark a toxic dose or a test without result, not a measured value. Some survivor counts are full or nearly so, which does not show that the dose was tolerated: survival well below the control is almost never listed, so the zero probably covers shortened survival too. Counts of survivors are from the toxicity check (mostly the fifth day) where no day follows; animals may have died later. Schedules are NCI's codes, read here as Q, the interval in days (D) or hours (H), X, the number of doses. Some entries hold several experiments; the values are given in rising order. For survival time, the PubChem record calls one and a half times the control and up active, and a quarter to a half above the control has no call in these data; cut-offs in other NCI protocols can differ. Some T/C values are followed by the survivors on the day toxicity was checked, most often the fifth; without a count, all were alive then.

`CNc1ccc(N=Nc2ccncc2C)cc1C`: the survivor count was 6 of 6 (dose: 1.56 mg/kg/injection, schedule: Q01DX009 (ip), vehicle: DMSO); 6 of 6 (dose: 3.12 mg/kg/injection, schedule: Q01DX009 (ip), vehicle: DMSO); 6 of 6 (dose: 6.25 mg/kg/injection, schedule: Q01DX009 (ip), vehicle: DMSO); 4 of 6 (dose: 50.0 mg/kg/injection, schedule: Q01DX009 (ip), vehicle: DMSO).

In the case of `Oc1ccccc1C=NCc1ccccc1.[CH-]=C([CH2-])C.[Pd+2]`, the survivor count is, setting by setting: (dose: 50.0 mg/kg/injection, schedule: Q04DX003 (ip), vehicle: Klucel (hydroxypropylcellulose) (HPC)) 0 of 6; (dose: 100.0 mg/kg/injection, schedule: Q04DX003 (ip), vehicle: Klucel (hydroxypropylcellulose) (HPC)) 0 of 6; (dose: 200.0 mg/kg/injection, schedule: Q04DX003 (ip), vehicle: Klucel (hydroxypropylcellulose) (HPC)) 0 of 6.

Consider `O=C1Nc2ccccc2C1NC(=S)Nc1ccccc1` (stereo not given), for which the survivor count (dose: 240.0 mg/kg/injection, schedule: Q01DX005 (ip), vehicle: saline with Tween-80) was 6 of 6.

Turning to `N=C(N)c1ccc(/C=C\C=C/c2cc3cc(C(=N)N)ccc3o2)cc1`, the T/C reads like this: (dose: 6.25 mg/kg/injection, schedule: Q04DX003 (ip), vehicle: saline with Tween-80) 126 % of control; (dose: 6.25 mg/kg/injection, schedule: Q04DX003 (ip), vehicle: saline) 137 % of control; (dose: 12.5 mg/kg/injection, schedule: Q04DX003 (ip), vehicle: saline with Tween-80) 140 % of control; (dose: 12.5 mg/kg/injection, schedule: Q04DX003 (ip), vehicle: saline) 147 % of control. The survivor count by setting is: (dose: 25.0 mg/kg/injection, schedule: Q04DX003 (ip), vehicle: saline) 6 of 6; (dose: 50.0 mg/kg/injection, schedule: Q04DX003 (ip), vehicle: saline) 2 of 6; (dose: 100.0 mg/kg/injection, schedule: Q04DX003 (ip), vehicle: saline) 2 of 6; (dose: 200.0 mg/kg/injection, schedule: Q04DX003 (ip), vehicle: saline) 0 of 6; (dose: 400.0 mg/kg/injection, schedule: Q04DX003 (ip), vehicle: saline) 0 of 6.

`CC1OC(OCC2OC(Oc3c(-c4ccc(O)c(O)c4)oc4cc(O)cc(O)c4c3=O)C(O)C(O)C2O)C(O)C(O)C1O` (stereo not given): the survivor count (dose: 50.0 mg/kg/injection, schedule: Q01DX005 (ip), vehicle: saline with Tween-80) was 0 of 5; the survivor count (dose: 100.0 mg/kg/injection, schedule: Q01DX005 (ip), vehicle: saline with Tween-80) is listed as 0 of 5; the survivor count under setting [1] is 0 of 5.

For `CC(CC(=O)c1ccccc1)=NCCN=C(C)CC(=O)c1ccccc1.c1cc[c]([Sn][c]2ccccc2)cc1`, the T/C (dose: 100.0 mg/kg/injection, schedule: Q01DX001 (ip), vehicle: Klucel (hydroxypropylcellulose) (HPC)) was 143 % of control.

As to `CCN(CC)CCOc1ccc2c(c1)C(=O)c1cc(OCCN(CC)CC)ccc1-2`, the survivor count is, setting by setting: (dose: 12.5 mg/kg/injection, schedule: Q01DX009 (ip), vehicle: saline) 6 of 6; (dose: 100.0 mg/kg/injection, schedule: Q01DX009 (ip), vehicle: saline with Tween-80) 3 of 6; (dose: 200.0 mg/kg/injection, schedule: Q01DX009 (ip), vehicle: saline with Tween-80) 0 of 6.

With `NC(=S)N/N=C/c1ccc(OC(F)(F)F)cn1`, where the note is “dose: 25.0 mg/kg/injection, schedule: Q01DX009 (ip), vehicle: saline with Tween-80”, the T/C is 135 % of control [4 of 6 alive].

On to `[CH3][Sn]([CH3])([N]=C=S)[N]=C=S.c1ccc(-c2nnc(-c3ccccn3)nc2-c2ccccc2)cc1`, for which, for the setting “dose: 240.0 mg/kg/injection, schedule: Q01DX005 (ip), vehicle: Klucel (hydroxypropylcellulose) (HPC)”, the survivor count was 0 of 6.

On to `c1ccc2c(CN3CCCCC3)c[nH]c2c1`, for which the survivor count under setting [2] is reported as 2 of 6.

Take `C=C(C[N+](C)(C)C)c1ccc([N+](=O)[O-])cc1`: the survivor count by setting is: under setting [3], 0 of 5; under setting [4], 0 of 5.

In the case of `CC(=O)Nn1cnc2c(SCc3ccccc3)ncnc21`, the T/C under setting [2] was 125 % of control. Further, the survivor count reads like this: (dose: 400.0 mg/kg/injection, schedule: Q01DX009 (ip), vehicle: Klucel (hydroxypropylcellulose) (HPC)) 3 of 6; under setting [5], 5 of 6.

For the compound `C[n+]1c2ccccc2nc2c(N)cc(N)cc21`, the T/C runs as follows: (dose: 31.25 mg/kg/injection, schedule: Q01DX009 (ip), vehicle: saline) 127 % of control [4 of 6 alive]; (dose: 62.5 mg/kg/injection, schedule: Q01DX009 (ip), vehicle: saline) 140 % of control; (dose: 62.5 mg/kg/injection, schedule: Q04DX003 (ip), vehicle: saline sonified) 127 % of control; (dose: 125.0 mg/kg/injection, schedule: Q04DX003 (ip), vehicle: saline sonified) 140 % of control. Further, the survivor count (dose: 125.0 mg/kg/injection, schedule: Q01DX009 (ip), vehicle: saline) is given as 5 of 6.

For `Oc1c(O)c(Br)c(Br)c(Br)c1Br`, the survivor count is 5 of 6 (dose: 200.0 mg/kg/injection, schedule: Q01DX009 (ip), vehicle: saline); 0 of 6 (dose: 400.0 mg/kg/injection, schedule: Q01DX009 (ip), vehicle: saline); 0 of 6 (dose: 600.0 mg/kg/injection, schedule: Q01DX009 (ip), vehicle: saline).

For the compound `CC1OC(O[C@H]2CC[C@]3(C=O)[C@H]4CC[C@]5(C)[C@@H](C6=COC(=O)C6)CC[C@]5(O)[C@@H]4CC[C@]3(O)C2)C(O)C(O)C1OC1OC(CO)C(O)C(O)C1O` (stereo not given in full), the survivor count is 3 of 6 under setting [3] and 1 of 6 under setting [4].

On to `C[P+]1(CCc2ccc(Cl)cc2)CC=CC1`, for which the survivor count (dose: 100.0 mg/kg/injection, schedule: Q04DX002 (ip), vehicle: saline) was 4 of 6 and 5 of 6; the survivor count (dose: 200.0 mg/kg/injection, schedule: Q04DX002 (ip), vehicle: saline) is 1 of 6; the survivor count (dose: 400.0 mg/kg/injection, schedule: Q04DX002 (ip), vehicle: saline) is 1 of 6.

With `CN(C)CC#CCCCS(=O)(=O)c1ccccc1`, the survivor count (dose: 240.0 mg/kg/injection, schedule: Q01DX005 (ip), vehicle: saline) was 0 of 6.

Consider `CNC(=O)OCc1c(COC(=O)NC)c2n(c1C)CS(=O)C2` (stereo not given), for which the T/C (dose: 400.0 mg/kg/injection, schedule: Q01DX005 (ip), vehicle: saline with Tween-80) was 125 % of control.

Consider `O=c1[nH]c2ccccc2nc1N=Nc1ccccc1`, for which the survivor count under setting [1] is given as 2 of 6.

As for `C=C1C(=O)OC2C3CCC2C1C3` (stereo not given), the survivor count is, setting by setting: (dose: 100.0 mg/kg/injection, schedule: Q04DX003 (ip), vehicle: saline with Tween-80) 0 of 6; under setting [2], 0 of 6; under setting [5], 0 of 6.

`CCNc1nncs1`: the T/C is 128 % of control (dose: 50.0 mg/kg/injection, schedule: Q01DX009 (ip), vehicle: saline) and 149 % of control (dose: 75.0 mg/kg/injection, schedule: Q01DX009 (ip), vehicle: saline).

For the compound `CCN(CC)CC(CN(CC)CC)N(CCO)CC(C)C`, the survivor count (dose: 200.0 mg/kg/injection, schedule: Q01DX005 (ip), vehicle: saline) was 0 of 5.

For the compound `S=P([S][Sn]([S]P(=S)(c1ccccc1)c1ccccc1)([c]1ccccc1)[c]1ccccc1)(c1ccccc1)c1ccccc1`, the T/C is 128 [5 of 6 alive] and 131 % of control (dose: 6.25 mg/kg/injection, schedule: Q01DX005 (ip), vehicle: Klucel (hydroxypropylcellulose) (HPC)); 141 and 143 % of control (dose: 12.5 mg/kg/injection, schedule: Q01DX005 (ip), vehicle: Klucel (hydroxypropylcellulose) (HPC)). Besides, the survivor count was 3 of 6 (dose: 25.0 mg/kg/injection, schedule: Q01DX005 (ip), vehicle: Klucel (hydroxypropylcellulose) (HPC)); 1 of 6 (dose: 50.0 mg/kg/injection, schedule: Q01DX005 (ip), vehicle: Klucel (hydroxypropylcellulose) (HPC)); 1 of 6 under setting [3]; 0 of 6 under setting [4].

These data come from PubChem BioAssay AID330 (DTP/NCI, 2004).
